## Library screening results

From ChEMBL document CHEMBL3988442, “University of Dundee, Small-Polar-MMV Screening Library” (2021).

The filed quantity is “Percent Effect” (%).
The record does not define 0% and 100%; most values in the screen are far below 50% and negative numbers occur (in some assays of this library far below -100).
The compounds are a random part of those screened.
Two or more numbers in one place are separate tests of the same structure; such repeats can differ widely.

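Viability assay of Plasmodium falciparum sporozoites; the read-out is not stated. The concentration is filed as 10 mM, unlikely as a test dose, so the dose is not known. Higher reads as lower viability (inferred: compounds with an IC50 in retests scored well above the rest). Strong results were mostly tested again. Of about 34,000 compounds tested this way, about 280 (0.84%) reached 50% or more in at least one test.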

Compound	Percent Effect
O=C(NCCN1CCOCC1)c1ccn(-c2ccc3ccccn23)n1.O=C(O)C(F)(F)F	6.083
CCN(CC)CCCNCc1cc2cc(C)cc(C)c2[nH]c1=O	11.75
CC(=O)N1CCCC(c2nc(N(C)C)ncc2-c2cccc(F)c2)C1 (stereo not drawn)	9.068
Cc1ccc2nc(C3CCN(CCO)CC3)nn2c1	9.416
CS(=O)(=O)N1CCc2sc(C(=O)NCCc3ccccn3)cc21	18.72
Cn1cccc1C1CCCCCN1C(=O)c1ccc(NC2CC2)nc1 (stereo not drawn)	-9.026
COC(=O)N1CC(C)=C(C)CN1C(=O)Nc1ccc(Cl)c(Cl)c1	-8.9
Cc1cccc(CNCc2c(C)nn(C)c2N2CCOCC2)n1	-15.21 and -3.348 and -0.3542
CC(=O)Nc1cc(Br)cnc1OCC(F)(F)F	14.13
COCCn1ccc2cc(NC(C)=O)ccc21	-6.652
O=C1c2ccccc2C(=O)N1CC(O)Cn1nc(-c2cccs2)oc1=O (stereo not drawn)	-6.127
CC1c2ncc(CNC(=O)C3CC3)n2CCN1CC1CCC1.O=C(O)C(F)(F)F (stereo not drawn)	1.18
[H][C@@]12COC[C@]1([H])[C@@H](OCC)CN2C(=O)c1ccnnc1	-14.36
CCN(CC1CCOC1)C(=O)Nc1ccc(N2CCCC2)nc1 (stereo not drawn)	7.89
Nc1ncc(-c2ccc(Cl)cc2)c(C2CCCNC2)n1 (stereo not drawn)	17.56
CCc1ccc(-c2ncc3c(n2)N(C)CCN(CCN(C)C)C3=O)cc1	18.54
CC(C)(CO)Nc1c(NCc2ccccn2)c(=O)c1=O	17.71
CC(=O)N1N=C(c2ccccc2)OC1C(=O)NCCc1ccc(C)cc1 (stereo not drawn)	-14.76
COCCCNC(=O)CCn1nc(C)c2ccccc21	15.57
COC(=O)c1ccoc1CN(C)Cc1cc(OC)c(OC)cc1C	-3.312
Cc1occc1C(=O)NCc1ccc(N2CCCC(C(N)=O)C2)cc1 (stereo not drawn)	-12.5
CCN1Cc2ccccc2CC2(CCN(CC3CCC3)CC2)C1=O	7.279
CC(=O)N1CCC12CCN(Cc1ccco1)CC2.O=C(O)C(F)(F)F	5.166
O=C(O)C(F)(F)F.[H][C@@]12CCN(Cc3ccccc3OC)C[C@]1([H])O[C@H](C(=O)N1CCCC1)C2	-8.38
Cn1cccc1CCC(=O)N1CCC2(CC1)c1ccccc1CC2O (stereo not drawn)	4.798
COc1ccc(Br)cc1S(=O)(=O)N(C)Cc1ccc(N(C)C)cc1	-12.51 and -8.527
O=C(O)C(F)(F)F.O=C1COC2(CCN(Cc3ccoc3)CC2)CN1c1ccsc1	-2.422
[H][C@@]12C[C@H](C(=O)Nc3cccnc3)[C@@]([H])(CN(S(=O)(=O)CCC)C1)O2	-3.694
OC(CN(Cc1ccccc1)Cc1ccncc1)c1ccco1 (stereo not drawn)	-6.34
O=C(NCC1CCOCC1)c1cc(-c2ccc3c(c2)CCO3)n[nH]1	-33.12 and -36.6
c1ccc2oc(CCCN3CCCC(Cn4cncn4)C3)nc2c1 (stereo not drawn)	0.3853
Fc1ccccc1CN1CCC[C@H](Cn2nnc(-c3cccs3)n2)C1	7.122
CCN1CCN(C(C)CNC(=O)Nc2cnn(CC)c2)CC1 (stereo not drawn)	0.6244
c1ncn(CC2CCCN(Cc3nc(-c4ccoc4)no3)C2)n1 (stereo not drawn)	-3.366 and 13.64 and -7.793
CCn1cnnc1CNC(=O)N(C)Cc1cccc(OC(F)F)c1	11.25
CCS(=O)(=O)N1CCN(CC2CC2)c2ncccc2C1	11.27
N#Cc1ccc(OCC(O)CN2CCc3cncnc3C2)cc1 (stereo not drawn)	-0.625
Cc1ccc(CN2CCC3(CC2)COCCN3S(C)(=O)=O)o1.O=C(O)C(F)(F)F	6.932
COCCn1c2c(ccc1=O)CCN(C(=O)CC1CC1)CC2	-4.195
CCc1nc(CN(C)C2CCN(CCn3cc(C#N)cn3)C2)no1 (stereo not drawn)	12.48
CC(C)(C)c1ncc2c(n1)CN(C(=O)c1ccncc1)C2	3.835
[H][C@@]12CCN(Cc3ccccc3)C[C@@]1([H])O[C@H](C(=O)NCC1CC1)C2	1.686
CNC(=O)C1CCCCN1C(=O)C1CCN(S(C)(=O)=O)CC1 (stereo not drawn)	4.302
O=C(O)C(F)(F)F.O=C(O)C(F)(F)F.O=C1NC2(CCN(Cc3cccs3)CC2)CC1c1ccncc1 (stereo not drawn)	-1.703
COc1ccc(C[C@H]2CNCC[C@H]2OC)cc1.O=C(O)C(F)(F)F	-13.05
Cc1nc(N2CCN(C(=O)c3ccccc3)CC2)c2cnn(C)c2n1	-8.371
Cc1ccnc(C2(C)CCCN2S(=O)(=O)c2c(C)noc2C)n1 (stereo not drawn)	9.436
CCn1cc(NC(=O)NCC(O)COc2cccc(F)c2)cn1 (stereo not drawn)	-20.3 and 6.76 and -17.94
COc1cc(S(=O)(=O)N2CCc3ccc(Cl)cc32)cc(C(=O)O)c1OC	2.037
OC(CN(Cc1ccccc1)Cc1ccncc1)c1cccs1 (stereo not drawn)	-7.843
CC(c1nc(C2CC2)no1)N1CCN(CCOCC(F)(F)F)CC1 (stereo not drawn)	-11.78
COc1cccc(CN2CCCCCC2c2cccc(C)c2)c1O (stereo not drawn)	44.13 and 43.49 and 59.81
COc1cn(-c2ccccc2)nc1C(=O)NCCCN1CCCC(C)C1 (stereo not drawn)	-6.705
CS(=O)(=O)CCNC(=O)c1cc2ccccc2nc1N1CCCC1	-5.867
O=C(CCNc1ncccn1)NCCOc1ccc2c(c1)CCC2	-2.526
NC(=O)C1(CCCc2cccnc2)CCCN(c2ncccn2)C1 (stereo not drawn)	-6.36
COc1ccccc1N1CCC(CNC(=O)N(C)Cc2ccco2)C1 (stereo not drawn)	-3.552
OC(CN(Cc1ccccc1)Cc1cscn1)c1ccco1 (stereo not drawn)	4.783
O=C(O)C(F)(F)F.[H][C@@]12COC[C@@H](C(=O)N3CCC(F)CC3)[C@]1([H])CN(C1CCCC1)C2	-12.86
CC(=O)c1c(F)cccc1N1CCC(CS(N)(=O)=O)CC1	-7.016
Cn1ccnc1-c1cccc(NC(=O)NCCN2CCOCC2)c1	-1.12
Cc1cccc(NC(=O)[C@@H]2CCCN2Cc2ccccc2C#N)n1	-22.3
O=C(Cn1cc(-n2cccc2)cn1)NCC1CCC1	-5.722
CN(Cc1nccn1C)C1CCN(CCc2ccccn2)CC1	6.946
CC(=O)N1CCC1c1cc(NC2CCOCC2)nc(C)n1 (stereo not drawn)	-2.978
CCn1cc(N)c(C(=O)NCc2cnn(C)c2)n1	-16.14
CC(c1nnc(-c2ccccc2)o1)N1CCC(Nc2ccccc2)CC1 (stereo not drawn)	-2.149

Some entries from above, unchanged:

{"compound": "CN(Cc1nccn1C)C1CCN(CCc2ccccn2)CC1", "Percent Effect": 6.946}
{"compound": "O=C(CCNc1ncccn1)NCCOc1ccc2c(c1)CCC2", "Percent Effect": -2.526}
{"compound": "CCn1cc(NC(=O)NCC(O)COc2cccc(F)c2)cn1", "stereo": "stereo not drawn", "Percent Effect": "-20.3 and 6.76 and -17.94"}
{"compound": "CC(=O)N1CCC1c1cc(NC2CCOCC2)nc(C)n1", "stereo": "stereo not drawn", "Percent Effect": -2.978}
{"compound": "O=C(Cn1cc(-n2cccc2)cn1)NCC1CCC1", "Percent Effect": -5.722}
{"compound": "Fc1ccccc1CN1CCC[C@H](Cn2nnc(-c3cccs3)n2)C1", "Percent Effect": 7.122}
{"compound": "Cc1occc1C(=O)NCc1ccc(N2CCCC(C(N)=O)C2)cc1", "stereo": "stereo not drawn", "Percent Effect": -12.5}